# Measurements published in patent US20100075953A1, “SUBSTITUTED PIPERAZINES, (1,4) DIAZEPINES, AND 2,5-DIAZABICYCLO (2.2.1) HEPTANES AS HISTAMINE H1 AND/OR H3 ANTAGONISTS OR HISTAMINE H3 REVERSE ANTAGONISTS” (Glaxo Group Limited, priority 2002, published 2010).
# Chains of the proteins cited; added tags and fusions are not shown. Lines headed by an entry give the natural chain unless they say otherwise; changes in a name come on top.
# UniProt P35367, whole entry: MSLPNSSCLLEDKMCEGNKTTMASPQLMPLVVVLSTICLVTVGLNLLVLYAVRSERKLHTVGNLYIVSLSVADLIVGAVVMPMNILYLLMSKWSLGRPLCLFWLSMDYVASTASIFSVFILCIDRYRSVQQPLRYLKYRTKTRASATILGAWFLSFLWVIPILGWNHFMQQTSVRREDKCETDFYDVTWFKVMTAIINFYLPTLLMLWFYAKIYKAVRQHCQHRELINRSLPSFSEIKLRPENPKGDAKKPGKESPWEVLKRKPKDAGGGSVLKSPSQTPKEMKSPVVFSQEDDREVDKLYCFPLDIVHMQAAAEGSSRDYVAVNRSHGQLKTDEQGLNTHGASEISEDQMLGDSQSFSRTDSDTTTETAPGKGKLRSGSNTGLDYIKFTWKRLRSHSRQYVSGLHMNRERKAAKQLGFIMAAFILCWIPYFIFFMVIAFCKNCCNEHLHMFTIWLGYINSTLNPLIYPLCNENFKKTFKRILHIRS
# UniProt Q9Y5N1: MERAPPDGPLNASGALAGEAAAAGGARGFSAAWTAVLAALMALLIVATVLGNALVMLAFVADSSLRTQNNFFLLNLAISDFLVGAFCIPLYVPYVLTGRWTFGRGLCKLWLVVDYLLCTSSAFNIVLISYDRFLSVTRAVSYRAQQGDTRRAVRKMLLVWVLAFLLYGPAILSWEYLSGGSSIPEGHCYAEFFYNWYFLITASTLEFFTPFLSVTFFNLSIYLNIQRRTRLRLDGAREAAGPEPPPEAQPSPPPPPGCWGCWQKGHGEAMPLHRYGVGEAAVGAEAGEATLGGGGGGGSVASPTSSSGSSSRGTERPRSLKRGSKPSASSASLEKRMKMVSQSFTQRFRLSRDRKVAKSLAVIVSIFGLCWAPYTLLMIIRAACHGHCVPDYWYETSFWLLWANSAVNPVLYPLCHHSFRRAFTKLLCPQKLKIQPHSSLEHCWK
# Some entries share one result that the patent states for a list of compounds.
# How the values were obtained:
# human H1 receptor = target: T1, human H1 receptor (Homo sapiens, UniProt P35367); assay: Histamine H1 functional antagonist assay; assay type: cell-based; details: CHO cells expressing human H1; suppression of histamine induced increase in fluorescence (FLIPR)
# T1 construct: expressed in transfected cells
# histamine H3 receptor = histamine H3 receptor (Homo sapiens, UniProt Q9Y5N1); assay: Histamine H3 functional antagonist assay; details: membranes of CHO K1 cells expressing human H3; [35S]GTPgammaS SPA; histamine 0.3 μM
smiles,measurement,setting,value
CC1CCCN1CCCOc1ccc(N2CCN(C(=O)c3cn(Cc4ccccc4)c4ccccc34)CC2)cc1 (stereo not shown) [Example E128],antagonism in the histamine H1 functional antagonist assay (pKb),human H1 receptor,> 6.5 pKb
same,antagonism in the histamine H3 functional antagonist assay (pKb),histamine H3 receptor,> 6.5 pKb
CCC1CCC(C)N(CCCOc2ccc(N3CCN(C(=O)c4cn(Cc5ccccc5)c5ccccc45)CC3)cc2)C1 (stereo not shown) [Example E137],antagonism in the histamine H1 functional antagonist assay (pKb),human H1 receptor,> 6.5 pKb
same,antagonism in the histamine H3 functional antagonist assay (pKb),histamine H3 receptor,> 6.5 pKb
O=C(O)C(F)(F)F.O=C(c1cn(Cc2ccccc2)c2ccccc12)N1CCN(c2ccc(OCCCN3CCCCCCC3)cc2)CC1 [Example E166],antagonism in the histamine H1 functional antagonist assay (pKb),human H1 receptor,> 6.5 pKb
same,antagonism in the histamine H3 functional antagonist assay (pKb),histamine H3 receptor,> 6.5 pKb
CN(CCCOc1ccc(N2CCN(C(=O)c3cn(Cc4ccccc4)c4ccccc34)CC2)cc1)C1CCCC1 [Example E180],antagonism in the histamine H1 functional antagonist assay (pKb),human H1 receptor,> 6.5 pKb
same,antagonism in the histamine H3 functional antagonist assay (pKb),histamine H3 receptor,> 6.5 pKb
CC1CCCN(CCCOc2ccc(N3CCN(C(=O)c4cn(Cc5ccccc5)c5ccccc45)CC3)cc2)C1 (stereo not shown) [Example E198],antagonism in the histamine H1 functional antagonist assay (pKb),human H1 receptor,> 6.5 pKb
same,antagonism in the histamine H3 functional antagonist assay (pKb),histamine H3 receptor,> 6.5 pKb
